Results taken from PubChem BioAssay AID588497 (NMMLSC, 2011).
The campaign covered roughly 360,000 compounds. About 780 (0.22%) were called active. Inconclusive means that the source gave no clear call. Such entries were picked first, then a sample of the others. Cut-off read from the data, not from the text of the source: active = inhibition above about 35% (passing the limit was not always enough); inconclusive = no clear call, values can overlap the other calls.

Tested on: Botulinum neurotoxin type F light chain protease (Clostridium botulinum)
Experiment: BoNT/F light chain protease inhibitors, primary screen, biochemical, flow cytometry, MLPCN library (AID 588497); note: plate controls were buffer without enzyme for full effect and enzyme alone for no effect
Details: Multiplex microsphere protease cleavage assay, at 10 µM, stronger effect = higher value

Row | Compound | inhibition
1 | COc1ccc(NC(=O)CSc2nnnn2-c2ccccc2OC)c(OC)c1 | inconclusive: 42.3%
2 | Cc1ccc(Cn2nnc3c(=O)[nH]c(C4CCN(C(=O)c5cccs5)CC4)nc32)cc1 | inactive: -3.2%
3 | CC(=O)c1ccc(-c2ccc(C(=O)NC3CC(C)(C)NC(C)(C)C3)o2)cc1 | active: 35.5%
4 | CCOc1ccccc1Nc1ncnc2ccc(Br)cc12 | inconclusive: -7.3%
5 | CC1SCC(NC(=O)c2ccc(Cl)cc2)CS1 (centres undefined) | inconclusive: 12.9%
6 | COc1ccc(/C=N\NC(=O)c2cccc(F)c2)cc1COc1ccccc1 | inconclusive: -0.9%
7 | O=C(O)[C@@H]1CSC2c3ccccc3C(=O)N21 (some centres undefined) | inconclusive: 0.2%
8 | COc1ccc(C(=O)Nc2ccnn2C2CCN(C(C)CSC)CC2)cc1 (centres undefined) | inactive: -1.6%
9 | CN(C)c1ccc(P(=O)(OC2CCCCC2)C(O)c2ccncc2)cc1 (centres undefined) | inconclusive: -139%
10 | CCOC(=O)C(C)Sc1nc(-c2cccs2)ccc1C#N (centres undefined) | inactive: -7.9%
11 | COc1cc(CNCCN(C)C)c(Br)cc1OCC(=O)NCc1ccccc1 | inactive: -5.6%
12 | CC(=O)c1c(C)[nH]c(C(=O)OCc2ccc([N+](=O)[O-])cc2)c1C | inactive: 12.4%
13 | COc1ccccc1OCCOCCn1cnc2ccccc2c1=O | inactive: 1.8%
14 | Cc1ccc(C)c(OCc2nnc(NC(=O)c3ccco3)s2)c1 | inconclusive: -9.4%
15 | CC(C)(C)NS(=O)(=O)c1ccc2[nH]c3c(c2c1)CCCCC3 | inconclusive: -7.1%
16 | S=C(NCCc1ccccc1)NCCc1cnc[nH]1 | inconclusive: 0.6%
17 | C=CCn1c(SCC(=O)NCCCO)nc2sc3c(c2c1=O)CCC3 | inconclusive: -22%
18 | Cc1ccc(-c2nc(-c3ccncc3)no2)cc1C | inconclusive: -5.8%
19 | COc1cccc(C2Oc3ccccc3C3CC(c4cccs4)=NN32)c1 (centres undefined) | inconclusive: -86.6%
20 | COc1ccccc1-n1c(SCC(N)=O)nnc1-c1ccccc1 | inactive: -8.3%

Row | Compound | inhibition
21 | CC(C)CC(=O)Nc1ccc(C(=O)CN2CCN(c3ccc(O)cc3)CC2)cc1 | inactive: -5.5%
22 | COc1ccc(-c2csc(COC(=O)C(C)(C)C)n2)cc1 | inconclusive: 65.7%
23 | COc1ccc(CN2CCNC(=O)C2CC(=O)N(C)C2CCOCC2)cc1OC (centres undefined) | inactive: -0.8%
24 | O=C(NCCc1ccccc1C(F)(F)F)C1CCC(=O)N(CCCN2CCCC2=O)C1 (centres undefined) | inconclusive: -15.3%
25 | COc1cc(C(=O)OC(C)CN2CCCCC2)cc(OC)c1OC (centres undefined) | inconclusive: 19.9%
26 | Cc1cc(C)c2c(CN3CCN(Cc4ccc5c(c4)OCO5)CC3)cc(=O)oc2c1C | inconclusive: -3.8%
27 | CCOC(=O)N1CCN(CCC(=O)Nc2cccc(Br)c2)CC1 | inconclusive: -1%
28 | CC(Oc1cccc(Cl)c1)C(=O)Nc1cc(S(=O)(=O)N2CCOCC2)ccc1N1CCCC1 (centres undefined) | inconclusive: -11.9%
29 | CN1c2ccccc2-c2ccccc2S1(=O)=O | inactive: -0.7%
30 | O=C1NC[C@H](CCCCN2C[C@H](Cc3ccccc3)N(Cc3ccccc3)C(=O)C2=O)N(CCc2ccccc2)C1=O | inactive: -11.7%
31 | Cc1cc(C(=O)Nc2ccccc2)c(C)o1 | inactive: -4.3%
32 | CCNC(=S)N/N=C(\C)c1ccc(Cl)s1 | inactive: -5.9%
33 | CC1CCCCC1NC(=O)COC(=O)c1ccc2c(=O)n3c(nc2c1)CCC3 (centres undefined) | inactive: -4.2%
34 | CCCCCC1CCC(c2ccc(/C(N)=N/O)cc2)CC1 (centres undefined) | inconclusive: -18.9%
35 | Cc1cc(OCC(=O)N(Cc2ccco2)C2CCS(=O)(=O)C2)ccc1Cl (centres undefined) | inconclusive: 61.5%
36 | NC(N)=N/N=C/c1ccc(Cl)c(Cl)c1 | inconclusive: -50.4%
37 | CCCN(CCC)CCNC(=O)c1cc2c(-c3ccccc3F)nn(C)c2s1 | inconclusive: -12%
38 | CCC1OC23CCCCC2C(C#N)(C(=N)O3)C1(C#N)C#N (centres undefined) | inactive: 4.4%
39 | CCOc1ccc(C=NNc2ccc(S(=O)(=O)Nc3ccccc3C(=O)O)cc2[N+](=O)[O-])cc1 | inactive: 9.4%
40 | CC1CN(C/C(=N\O)C23CC4CC(CC(C4)C2)C3)CC(C)O1 (centres undefined) | inconclusive: -10.6%

Row | Compound | inhibition
41 | Nn1c(SCc2ccccc2)nnc1C1CCCCC1 | inconclusive: 5.2%
42 | COc1ccc(C=NCCc2ccc(OC)c(OC)c2)cc1OC | inactive: -8.8%
43 | COC(=O)CN1C(=O)C2(C(C#N)=C(N)Oc3ccccc32)C2=C1CC(C)(C)CC2=O (centres undefined) | inactive: 3.2%
44 | Cc1cccc(C(=O)N/N=C/c2ccncc2)c1 | inactive: -3.4%
45 | CCNC(=O)c1ccccc1-c1nc(-c2ccccc2OC)no1 | inconclusive: -4.7%
46 | Cc1cc(NC(=O)COC(=O)c2cccc(OCc3ccccc3)c2)no1 | inactive: -2.5%
47 | Fc1ccc(CN2CCCCCCC2)cc1F | inactive: -2.8%
48 | Cc1ccc(C2(C)NC(=O)N(CC(=O)NNC(=O)c3cc(C)oc3C)C2=O)cc1 (centres undefined) | inconclusive: 0.9%
49 | O=C1C2CCCCN2C(=O)N1CCCCN1CCN(c2ccccc2Oc2ccccc2)CC1 (centres undefined) | inconclusive: 42.1%
50 | CC(=O)N1CSCC1C(=O)NNS(=O)(=O)c1cccc(C(F)(F)F)c1 (centres undefined) | inconclusive: -27%
51 | CS(=O)(=O)N1CCCC(C(=O)Nc2c(F)cccc2F)C1 (centres undefined) | inconclusive: 1%
52 | CCn1nc(C(=O)NCc2nnc3ccccn23)c2ccccc2c1=O | inactive: 1.8%
53 | CN(C(=O)c1ccc(NC(=O)Cc2cccc(NC(=O)C3CCN(C(=O)C4CCCCC4)CC3)c2)cc1)C1CCCC1 | inactive: 0.7%
54 | CCC(=O)NCc1csc(-c2cccs2)n1 | inconclusive: -17.5%
55 | CC(=O)Cc1nsc(NC(=O)c2cn(-c3ccccc3)nc2-c2ccc(Br)cc2)n1 | inconclusive: 0.9%
56 | CCNS(=O)(=O)c1ccc(CCC(=O)N2CCN(Cc3ccccc3)CC2)cc1 | inconclusive: 3.4%
57 | CC(C)C(O)(C(=O)NNc1ccccc1)C(C)C | inconclusive: 46.9%
58 | COc1ccccc1N1CC(C(=O)Nc2nnc(SCc3cccnc3)s2)CC1=O (centres undefined) | inactive: 1%
59 | COCc1cc(C)nc2sc(C(=O)Nc3cccc(OC)c3)c(N)c12 | inconclusive: -1.2%

4 of the compounds above, tab-delimited.
Row	Compound	inhibition
53	CN(C(=O)c1ccc(NC(=O)Cc2cccc(NC(=O)C3CCN(C(=O)C4CCCCC4)CC3)c2)cc1)C1CCCC1	inactive: 0.7%
54	CCC(=O)NCc1csc(-c2cccs2)n1	inconclusive: -17.5%
57	CC(C)C(O)(C(=O)NNc1ccccc1)C(C)C	inconclusive: 46.9%
59	COCc1cc(C)nc2sc(C(=O)Nc3cccc(OC)c3)c(N)c12	inconclusive: -1.2%
